From article PMC7025286
No constants are given. Whether binding was seen depends on the method and setting. Binding seen in cells or lysates may run through a third protein. Some binding calls cover weakened binding; strength is not graded here.

The chains behind the UniProt entries cited, without tags or fusion partners.
UniProt Q9CW03: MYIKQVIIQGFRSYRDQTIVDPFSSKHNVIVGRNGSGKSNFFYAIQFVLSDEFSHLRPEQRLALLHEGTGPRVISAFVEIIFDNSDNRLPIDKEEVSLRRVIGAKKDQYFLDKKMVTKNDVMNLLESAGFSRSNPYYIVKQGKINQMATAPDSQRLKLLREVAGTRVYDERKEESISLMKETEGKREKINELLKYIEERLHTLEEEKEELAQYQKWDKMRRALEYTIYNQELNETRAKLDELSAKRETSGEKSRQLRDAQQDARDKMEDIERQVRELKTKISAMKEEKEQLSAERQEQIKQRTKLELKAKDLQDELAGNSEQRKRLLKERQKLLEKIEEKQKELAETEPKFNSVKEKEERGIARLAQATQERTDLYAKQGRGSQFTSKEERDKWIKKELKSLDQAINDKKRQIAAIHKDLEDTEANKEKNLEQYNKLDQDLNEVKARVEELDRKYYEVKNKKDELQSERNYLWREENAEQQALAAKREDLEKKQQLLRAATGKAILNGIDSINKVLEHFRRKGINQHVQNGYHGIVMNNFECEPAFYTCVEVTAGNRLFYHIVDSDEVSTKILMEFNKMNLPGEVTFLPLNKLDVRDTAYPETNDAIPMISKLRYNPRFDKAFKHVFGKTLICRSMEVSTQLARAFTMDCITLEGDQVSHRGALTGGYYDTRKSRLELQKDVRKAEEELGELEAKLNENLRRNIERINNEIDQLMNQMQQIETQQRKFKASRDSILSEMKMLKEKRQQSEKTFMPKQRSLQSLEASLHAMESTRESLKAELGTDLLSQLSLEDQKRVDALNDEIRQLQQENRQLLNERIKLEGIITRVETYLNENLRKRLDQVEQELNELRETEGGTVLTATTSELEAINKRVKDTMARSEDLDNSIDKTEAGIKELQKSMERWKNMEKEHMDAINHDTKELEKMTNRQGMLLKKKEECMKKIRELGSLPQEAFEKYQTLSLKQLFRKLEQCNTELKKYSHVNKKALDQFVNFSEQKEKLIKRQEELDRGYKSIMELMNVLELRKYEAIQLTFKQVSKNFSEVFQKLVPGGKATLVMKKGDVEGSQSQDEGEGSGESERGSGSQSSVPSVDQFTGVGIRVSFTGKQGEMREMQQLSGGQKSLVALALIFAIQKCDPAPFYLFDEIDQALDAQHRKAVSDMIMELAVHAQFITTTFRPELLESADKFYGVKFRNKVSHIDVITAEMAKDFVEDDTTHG

Biological target: T1, SMC1β (mouse (endogenous in testis)) (UniProt Q920F6)
T1 sequence: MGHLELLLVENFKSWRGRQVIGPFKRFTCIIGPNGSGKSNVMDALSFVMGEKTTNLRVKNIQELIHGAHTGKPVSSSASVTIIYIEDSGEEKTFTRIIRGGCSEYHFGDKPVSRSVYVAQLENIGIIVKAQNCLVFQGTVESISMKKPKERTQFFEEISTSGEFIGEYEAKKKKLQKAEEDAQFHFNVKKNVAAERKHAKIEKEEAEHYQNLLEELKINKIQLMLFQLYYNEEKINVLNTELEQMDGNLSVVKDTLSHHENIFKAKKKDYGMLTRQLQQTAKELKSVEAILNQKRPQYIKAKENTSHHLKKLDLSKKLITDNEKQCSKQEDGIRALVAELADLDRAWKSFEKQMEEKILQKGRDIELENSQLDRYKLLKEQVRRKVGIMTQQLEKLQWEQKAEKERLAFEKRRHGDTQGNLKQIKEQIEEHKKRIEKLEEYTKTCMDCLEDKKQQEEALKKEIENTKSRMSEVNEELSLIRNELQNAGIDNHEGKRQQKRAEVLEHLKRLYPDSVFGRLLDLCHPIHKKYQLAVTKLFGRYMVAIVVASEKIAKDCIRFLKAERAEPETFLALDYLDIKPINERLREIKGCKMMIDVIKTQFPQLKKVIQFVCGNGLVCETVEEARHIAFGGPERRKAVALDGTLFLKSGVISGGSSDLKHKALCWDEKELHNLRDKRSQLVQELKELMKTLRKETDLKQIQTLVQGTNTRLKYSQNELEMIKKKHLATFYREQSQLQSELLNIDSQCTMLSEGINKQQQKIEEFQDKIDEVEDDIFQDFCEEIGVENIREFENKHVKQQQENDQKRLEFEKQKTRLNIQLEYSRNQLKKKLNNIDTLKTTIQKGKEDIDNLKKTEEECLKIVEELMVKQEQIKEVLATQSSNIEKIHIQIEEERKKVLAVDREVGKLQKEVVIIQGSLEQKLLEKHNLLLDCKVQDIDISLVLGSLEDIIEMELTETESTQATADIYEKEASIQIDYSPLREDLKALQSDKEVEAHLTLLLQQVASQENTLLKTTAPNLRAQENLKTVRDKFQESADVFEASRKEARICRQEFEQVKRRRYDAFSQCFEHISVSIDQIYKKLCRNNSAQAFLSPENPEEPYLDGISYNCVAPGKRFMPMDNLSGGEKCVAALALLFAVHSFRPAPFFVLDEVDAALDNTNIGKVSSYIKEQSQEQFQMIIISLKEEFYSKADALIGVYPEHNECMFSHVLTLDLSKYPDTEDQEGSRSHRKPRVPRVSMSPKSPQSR
Assay: co-IP; 600 μg testis nuclear extract with anti-SMC1β IgG (mouse hybridoma supernatant) overnight at 4°C, Protein G Dynabeads; immunoblot with anti-acSMC3, anti-SMC3 and anti-SMC1β; extracts of wild-type mice (Fig 1A) and of control and Esco2 fl/Δ Vasa-cre mice (Fig S17D); control IP with anti-MYC IgG

binding: binds
Substance: SMC3 acetylated on K105/K106 (from UniProt Q9CW03 1-1217)
